Source: article PMC10536199
Results are given in words; binding and its absence hold for the method and conditions named. In cells and extracts the contact can be indirect. Some results given as binding are weak or reduced against the parent protein; the word gives no strength.

Chains of the proteins cited; added tags and fusions are not shown. Residues count along the entry.
UniProt Q8WUM4: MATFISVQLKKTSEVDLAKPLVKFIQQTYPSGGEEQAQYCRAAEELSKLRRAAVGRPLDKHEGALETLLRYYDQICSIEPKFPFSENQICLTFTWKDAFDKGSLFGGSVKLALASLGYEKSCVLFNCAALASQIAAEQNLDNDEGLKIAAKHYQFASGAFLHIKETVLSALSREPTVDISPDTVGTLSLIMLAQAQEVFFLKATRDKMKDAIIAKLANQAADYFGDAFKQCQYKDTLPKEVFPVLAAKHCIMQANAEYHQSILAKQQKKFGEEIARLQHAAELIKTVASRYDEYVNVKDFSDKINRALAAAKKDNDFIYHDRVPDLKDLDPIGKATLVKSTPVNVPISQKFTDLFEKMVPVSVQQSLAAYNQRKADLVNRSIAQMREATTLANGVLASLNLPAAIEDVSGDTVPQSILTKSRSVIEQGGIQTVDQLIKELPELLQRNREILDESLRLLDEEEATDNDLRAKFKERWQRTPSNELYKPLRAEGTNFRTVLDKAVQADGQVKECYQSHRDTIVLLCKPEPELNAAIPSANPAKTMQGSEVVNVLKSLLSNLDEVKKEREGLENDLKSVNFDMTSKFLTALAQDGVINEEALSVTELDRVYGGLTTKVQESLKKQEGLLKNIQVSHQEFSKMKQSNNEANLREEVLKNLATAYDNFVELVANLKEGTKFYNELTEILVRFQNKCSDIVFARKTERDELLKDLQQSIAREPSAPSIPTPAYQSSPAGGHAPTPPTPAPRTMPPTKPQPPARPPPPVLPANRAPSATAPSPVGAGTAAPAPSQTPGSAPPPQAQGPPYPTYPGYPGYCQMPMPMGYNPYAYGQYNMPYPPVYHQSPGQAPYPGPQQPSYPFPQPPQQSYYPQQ
UniProt P13500, residues 24-99: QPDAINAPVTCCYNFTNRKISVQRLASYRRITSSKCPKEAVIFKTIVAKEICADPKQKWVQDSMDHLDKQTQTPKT

Molecular target: 3HA-Alix (ALG-2-interacting protein X) (human) (UniProt Q8WUM4)
Assay: co-IP; HEK293T cells co-transfected, harvested after 48 h; lysed in 50 mM Tris, 150 mM NaCl, 2 mM EDTA, 3% glycerol, 1% NP-40, sonicated; anti-HA or anti-Flag antibody 3 h at 4 °C, protein A-agarose 3 h at 4 °C, 6 washes; Western blotting; also in control and Alix knockdown cells, and with or without co-expressed CCL2

- binding: binds
Substance: 3Flag-CCL2 (24-99 aa), mature human CCL2 (from UniProt P13500 24-99)
